In patent publication US9216186B2, “Combination of a pyrroloquinoline compound and an aminoglycodise antimicrobial agent” (HELPERBY THERAPEUTICS LIMITED, priority 2010, dated 2015):
For at least one compound, name, drawing or mass did not settle the structure.

System: clinically latent microorganisms
Experiment: Screening of compounds for ability to kill clinically latent microorganisms (method of WO2000028074)
Assay type: cell-based
Conditions: observed by the Applicant using the method of WO2000028074
Description: International Patent Application, Publication Number WO2000028074 describes a method of screening compounds to determine their ability to kill clinically latent microorganisms. […] This observation has necessitated the development of novel antimicrobials which may be used to kill clinically latent microorganisms.
By way of example, WO2000028074 describes a suitable method of screening compounds to determine their ability to kill clinically latent microorganisms. A typical method may include the following steps: • (1) growing a bacterial culture to stationary phase; • (2) treating the stationary phase culture with one or more antimicrobial agents at a concentration and or time sufficient to kill growing bacteria, thereby selecting a phenotypically resistant sub-population; • (3) incubating a sample of the phenotypically resistant subpopulation with one or more test compounds or agents; and • (4) assessing any antimicrobial effects against the phenotypically resistant subpopulation.

C[C@H]1COc2c(N3CCN(C)CC3)c(F)cc3c(=O)c(C(=O)O)cn1c23 [levofloxacin]
activity against clinically latent microorganisms: little or no activity
